# Test results: the supplement of paper PMC11438910
# This is one part of the list. Only a few entries rise above the background.
# How the values were obtained:
# Test in all cases: fluorescence intensity of antibody binding to polysaccharide-coupled beads; higher = stronger binding
# [1] = biological target: pneumococcal polysaccharide Pn44
# [2] = biological target: pneumococcal polysaccharide Pn45
# [3] = biological target: pneumococcal polysaccharide Pn46
# [4] = biological target: pneumococcal polysaccharide Pn47A
# [5] = biological target: pneumococcal polysaccharide Pn47F
# [6] = biological target: pneumococcal polysaccharide Pn48
# [7] = biological target: pneumococcal polysaccharide Pn5
# [8] = biological target: pneumococcal polysaccharide Pn6A
# [9] = biological target: pneumococcal polysaccharide Pn6B
# [10] = biological target: pneumococcal polysaccharide Pn6C
# [11] = biological target: pneumococcal polysaccharide Pn6D
# [12] = biological target: pneumococcal polysaccharide Pn7A
# [13] = biological target: pneumococcal polysaccharide Pn7B
# [14] = biological target: pneumococcal polysaccharide Pn7C
# [15] = biological target: pneumococcal polysaccharide Pn7F
# [16] = biological target: pneumococcal polysaccharide Pn8
# [17] = biological target: pneumococcal polysaccharide Pn9A
# [18] = biological target: pneumococcal polysaccharide Pn9L
# [19] = biological target: pneumococcal polysaccharide Pn9N
# [20] = biological target: pneumococcal polysaccharide Pn9V
# [21] = antibody concentration 0.1 ng/mL
# [22] = antibody concentration 0.534724 ng/mL
# [23] = antibody concentration 2.8593 ng/mL
# [24] = antibody concentration 15.2894 ng/mL
# [25] = antibody concentration 81.7561 ng/mL
# [26] = antibody concentration 437.17 ng/mL
# [27] = antibody concentration 2337.65 ng/mL
# [28] = antibody concentration 12500 ng/mL
binder,measurement,setting,value
4-80.2 (protein) chain 1: QVQLQESGPGLVKPSETLSLTCAVSGDSFSSYWWSWIRQPPGKGLEWIGEINGNVGSTNYNPSLKSRVTISKDASKNQFSLKLSSVTAADTAVYYCARYKEYWGQGVLVTVSS chain 2: DVVMTQSPLSLPITPGQPASISCRSSQSLVHSNGNTYLSWYQQKPGQPPRRLIYEVSNRDSGVPDRFSGSGAGTDFTLKISRVEAEDVGVYYCGQGTHLPYSFGQGTKVEIK,fluorescence intensity,[1]; [21],25.8 MFI
same,fluorescence intensity,[1]; [22],25.5 MFI
same,fluorescence intensity,[1]; [23],26 MFI
same,fluorescence intensity,[1]; [24],24.8 MFI
same,fluorescence intensity,[1]; [25],24.5 MFI
same,fluorescence intensity,[1]; [26],26 MFI
same,fluorescence intensity,[1]; [27],25 MFI
same,fluorescence intensity,[1]; [28],15.5 MFI
same,fluorescence intensity,[2]; [21],11.5 MFI
same,fluorescence intensity,[2]; [22],10.5 MFI
same,fluorescence intensity,[2]; [23],11 MFI
same,fluorescence intensity,[2]; [24],10 MFI
same,fluorescence intensity,[2]; [25],11 MFI
same,fluorescence intensity,[2]; [26],10.5 MFI
same,fluorescence intensity,[2]; [27],11 MFI
same,fluorescence intensity,[2]; [28],14 MFI
same,fluorescence intensity,[3]; [21],24.5 MFI
same,fluorescence intensity,[3]; [22],23.5 MFI
same,fluorescence intensity,[3]; [23],25 MFI
same,fluorescence intensity,[3]; [24],23.8 MFI
same,fluorescence intensity,[3]; [25],22.5 MFI
same,fluorescence intensity,[3]; [26],24 MFI
same,fluorescence intensity,[3]; [27],25.5 MFI
same,fluorescence intensity,[3]; [28],37 MFI
same,fluorescence intensity,[4]; [21],16 MFI
same,fluorescence intensity,[4]; [22],16.5 MFI
same,fluorescence intensity,[4]; [23],16.5 MFI
same,fluorescence intensity,[4]; [24],16 MFI
same,fluorescence intensity,[4]; [25],16 MFI
same,fluorescence intensity,[4]; [26],17 MFI
same,fluorescence intensity,[4]; [27],17.5 MFI
same,fluorescence intensity,[4]; [28],21 MFI
same,fluorescence intensity,[5]; [21],12.5 MFI
same,fluorescence intensity,[5]; [22],12 MFI
same,fluorescence intensity,[5]; [23],12.5 MFI
same,fluorescence intensity,[5]; [24],12 MFI
same,fluorescence intensity,[5]; [25],12.5 MFI
same,fluorescence intensity,[5]; [26],12.2 MFI
same,fluorescence intensity,[5]; [27],13 MFI
same,fluorescence intensity,[5]; [28],23 MFI
same,fluorescence intensity,[6]; [21],22.5 MFI
same,fluorescence intensity,[6]; [22],22 MFI
same,fluorescence intensity,[6]; [23],21.5 MFI
same,fluorescence intensity,[6]; [24],21.8 MFI
same,fluorescence intensity,[6]; [25],21.8 MFI
same,fluorescence intensity,[6]; [26],21 MFI
same,fluorescence intensity,[6]; [27],24.5 MFI
same,fluorescence intensity,[6]; [28],32 MFI
same,fluorescence intensity,[7]; [21],10 MFI
same,fluorescence intensity,[7]; [22],9 MFI
same,fluorescence intensity,[7]; [23],10 MFI
same,fluorescence intensity,[7]; [24],9 MFI
same,fluorescence intensity,[7]; [25],9.5 MFI
same,fluorescence intensity,[7]; [26],9.5 MFI
same,fluorescence intensity,[7]; [27],10.5 MFI
same,fluorescence intensity,[7]; [28],22 MFI
same,fluorescence intensity,[8]; [21],23.5 MFI
same,fluorescence intensity,[8]; [22],21.8 MFI
same,fluorescence intensity,[8]; [23],21.5 MFI
same,fluorescence intensity,[8]; [24],20.5 MFI
same,fluorescence intensity,[8]; [25],21.8 MFI
same,fluorescence intensity,[8]; [26],22 MFI
same,fluorescence intensity,[8]; [27],25 MFI
same,fluorescence intensity,[8]; [28],27.5 MFI
same,fluorescence intensity,[9]; [21],19.5 MFI
same,fluorescence intensity,[9]; [22],20 MFI
same,fluorescence intensity,[9]; [23],19 MFI
same,fluorescence intensity,[9]; [24],20.8 MFI
same,fluorescence intensity,[9]; [25],19.8 MFI
same,fluorescence intensity,[9]; [26],21 MFI
same,fluorescence intensity,[9]; [27],21 MFI
same,fluorescence intensity,[9]; [28],29 MFI
same,fluorescence intensity,[10]; [21],15.8 MFI
same,fluorescence intensity,[10]; [22],15.5 MFI
same,fluorescence intensity,[10]; [23],20.2 MFI
same,fluorescence intensity,[10]; [24],17.5 MFI
same,fluorescence intensity,[10]; [25],14.8 MFI
same,fluorescence intensity,[10]; [26],20.5 MFI
same,fluorescence intensity,[10]; [27],24.5 MFI
same,fluorescence intensity,[10]; [28],27.5 MFI
same,fluorescence intensity,[11]; [21],19 MFI
same,fluorescence intensity,[11]; [22],18 MFI
same,fluorescence intensity,[11]; [23],17.5 MFI
same,fluorescence intensity,[11]; [24],19.8 MFI
same,fluorescence intensity,[11]; [25],17.2 MFI
same,fluorescence intensity,[11]; [26],18 MFI
same,fluorescence intensity,[11]; [27],20.5 MFI
same,fluorescence intensity,[11]; [28],21.8 MFI
same,fluorescence intensity,[12]; [21],23 MFI
same,fluorescence intensity,[12]; [22],20.5 MFI
same,fluorescence intensity,[12]; [23],20 MFI
same,fluorescence intensity,[12]; [24],20 MFI
same,fluorescence intensity,[12]; [25],21 MFI
same,fluorescence intensity,[12]; [26],21.5 MFI
same,fluorescence intensity,[12]; [27],27.5 MFI
same,fluorescence intensity,[12]; [28],77.5 MFI
same,fluorescence intensity,[13]; [21],17.2 MFI
same,fluorescence intensity,[13]; [22],17.5 MFI
same,fluorescence intensity,[13]; [23],15.5 MFI
same,fluorescence intensity,[13]; [24],17.5 MFI
same,fluorescence intensity,[13]; [25],15 MFI
same,fluorescence intensity,[13]; [26],18 MFI
same,fluorescence intensity,[13]; [27],19.2 MFI
same,fluorescence intensity,[13]; [28],30.5 MFI
same,fluorescence intensity,[14]; [21],18.2 MFI
same,fluorescence intensity,[14]; [22],15.5 MFI
same,fluorescence intensity,[14]; [23],20 MFI
same,fluorescence intensity,[14]; [24],15.5 MFI
same,fluorescence intensity,[14]; [25],17.5 MFI
same,fluorescence intensity,[14]; [26],17 MFI
same,fluorescence intensity,[14]; [27],17 MFI
same,fluorescence intensity,[14]; [28],27.8 MFI
same,fluorescence intensity,[15]; [21],16 MFI
same,fluorescence intensity,[15]; [22],16.5 MFI
same,fluorescence intensity,[15]; [23],15.5 MFI
same,fluorescence intensity,[15]; [24],15.5 MFI
same,fluorescence intensity,[15]; [25],16.5 MFI
same,fluorescence intensity,[15]; [26],15.5 MFI
same,fluorescence intensity,[15]; [27],20.2 MFI
same,fluorescence intensity,[15]; [28],42.5 MFI
same,fluorescence intensity,[16]; [21],23.5 MFI
same,fluorescence intensity,[16]; [22],22.5 MFI
same,fluorescence intensity,[16]; [23],21.5 MFI
same,fluorescence intensity,[16]; [24],22 MFI
same,fluorescence intensity,[16]; [25],22.5 MFI
same,fluorescence intensity,[16]; [26],22.5 MFI
same,fluorescence intensity,[16]; [27],25 MFI
same,fluorescence intensity,[16]; [28],37 MFI
same,fluorescence intensity,[17]; [21],20.8 MFI
same,fluorescence intensity,[17]; [22],19.5 MFI
same,fluorescence intensity,[17]; [23],19.5 MFI
same,fluorescence intensity,[17]; [24],19.5 MFI
same,fluorescence intensity,[17]; [25],18.5 MFI
same,fluorescence intensity,[17]; [26],17.5 MFI
same,fluorescence intensity,[17]; [27],22 MFI
same,fluorescence intensity,[17]; [28],32 MFI
same,fluorescence intensity,[18]; [21],18.2 MFI
same,fluorescence intensity,[18]; [22],17.2 MFI
same,fluorescence intensity,[18]; [23],16 MFI
same,fluorescence intensity,[18]; [24],17 MFI
same,fluorescence intensity,[18]; [25],18.5 MFI
same,fluorescence intensity,[18]; [26],20 MFI
same,fluorescence intensity,[18]; [27],18.5 MFI
same,fluorescence intensity,[18]; [28],28.2 MFI
same,fluorescence intensity,[19]; [21],18.2 MFI
same,fluorescence intensity,[19]; [22],16.5 MFI
same,fluorescence intensity,[19]; [23],16.5 MFI
same,fluorescence intensity,[19]; [24],17 MFI
same,fluorescence intensity,[19]; [25],17 MFI
same,fluorescence intensity,[19]; [26],17.5 MFI
same,fluorescence intensity,[19]; [27],17.5 MFI
same,fluorescence intensity,[19]; [28],28 MFI
same,fluorescence intensity,[20]; [21],14.8 MFI
same,fluorescence intensity,[20]; [22],14 MFI
same,fluorescence intensity,[20]; [23],16 MFI
same,fluorescence intensity,[20]; [24],15.5 MFI
same,fluorescence intensity,[20]; [25],14.5 MFI
same,fluorescence intensity,[20]; [26],15 MFI
same,fluorescence intensity,[20]; [27],18 MFI
same,fluorescence intensity,[20]; [28],19 MFI

# 3 entries from above, as tab-separated lines.
binder	measurement	setting	value
4-80.2 (protein) chain 1: QVQLQESGPGLVKPSETLSLTCAVSGDSFSSYWWSWIRQPPGKGLEWIGEINGNVGSTNYNPSLKSRVTISKDASKNQFSLKLSSVTAADTAVYYCARYKEYWGQGVLVTVSS chain 2: DVVMTQSPLSLPITPGQPASISCRSSQSLVHSNGNTYLSWYQQKPGQPPRRLIYEVSNRDSGVPDRFSGSGAGTDFTLKISRVEAEDVGVYYCGQGTHLPYSFGQGTKVEIK	fluorescence intensity	[20]; [21]	14.8 MFI
same	fluorescence intensity	[20]; [22]	14 MFI
same	fluorescence intensity	[20]; [23]	16 MFI

# Given bar-delimited: entries from further up.
binder | measurement | setting | value
4-80.2 (protein) chain 1: QVQLQESGPGLVKPSETLSLTCAVSGDSFSSYWWSWIRQPPGKGLEWIGEINGNVGSTNYNPSLKSRVTISKDASKNQFSLKLSSVTAADTAVYYCARYKEYWGQGVLVTVSS chain 2: DVVMTQSPLSLPITPGQPASISCRSSQSLVHSNGNTYLSWYQQKPGQPPRRLIYEVSNRDSGVPDRFSGSGAGTDFTLKISRVEAEDVGVYYCGQGTHLPYSFGQGTKVEIK | fluorescence intensity | [1]; [24] | 24.8 MFI
same | fluorescence intensity | [1]; [25] | 24.5 MFI
same | fluorescence intensity | [1]; [26] | 26 MFI
same | fluorescence intensity | [1]; [27] | 25 MFI
